In PubChem BioAssay AID743255 (National Center for Advancing Translational Sciences (NCATS), 2014):
Values joined by “and” are separate entries in the source; they are usually repeats but may differ in a detail not shown here. Equal entries are not always repeated. The campaign covered roughly 390,000 compounds. About 910 (0.23%) were called active. The shares of active, inactive and inconclusive entries below differ from those in the screen. Calls follow the shape of the dose curve; as a rule, active = well fitted inhibition curve with a large enough effect; inconclusive = small, poorly fitted or top-dose-only effect; inactive = no such curve, though single readings can be large or run the other way. A potency beside an inconclusive call is a rough fit, not a confirmed value.

Sequences of proteins named here, by UniProt entry; tags and fusion partners are left off. A change or cut given only in a name is not applied to a line headed by its entry.
UniProt O94782: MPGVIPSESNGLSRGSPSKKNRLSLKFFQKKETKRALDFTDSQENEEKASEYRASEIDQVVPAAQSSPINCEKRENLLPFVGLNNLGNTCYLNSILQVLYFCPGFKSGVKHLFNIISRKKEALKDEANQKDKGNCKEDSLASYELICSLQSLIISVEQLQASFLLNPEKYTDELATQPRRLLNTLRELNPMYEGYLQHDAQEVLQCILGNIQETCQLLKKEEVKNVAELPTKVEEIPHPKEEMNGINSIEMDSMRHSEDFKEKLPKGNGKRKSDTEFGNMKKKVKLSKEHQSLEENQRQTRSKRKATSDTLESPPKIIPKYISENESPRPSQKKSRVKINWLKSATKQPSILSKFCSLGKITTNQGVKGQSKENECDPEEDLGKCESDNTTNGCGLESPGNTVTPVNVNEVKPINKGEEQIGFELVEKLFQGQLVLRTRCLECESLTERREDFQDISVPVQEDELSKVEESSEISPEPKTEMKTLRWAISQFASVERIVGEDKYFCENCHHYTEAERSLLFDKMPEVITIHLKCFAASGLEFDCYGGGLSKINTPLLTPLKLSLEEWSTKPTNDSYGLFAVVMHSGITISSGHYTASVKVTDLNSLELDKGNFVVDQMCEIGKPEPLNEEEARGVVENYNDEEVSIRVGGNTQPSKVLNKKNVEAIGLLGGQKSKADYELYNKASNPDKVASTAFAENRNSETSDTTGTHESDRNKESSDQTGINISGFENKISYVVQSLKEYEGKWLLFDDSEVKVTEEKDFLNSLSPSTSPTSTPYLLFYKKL

These compounds were tested against Ubiquitin carboxyl-terminal hydrolase 1 (Homo sapiens) (UniProt O94782) (assay: Inhibitors of USP1/UAF1: Primary Screen). Conditions: recombinant USP1/UAF1, Ub-Rhodamine cleavage fluorescence; activity change, negative = inhibition: at 57.1 µM (top of the series).
Method in brief: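 1 nM enzyme complex + cpd, 15 min RT; start with Ub-Rho 150nM final; kinetic fluorescence ex 480/em 540, 6 reads q60 s. Buffer 50mM HEPES pH 7.8, 0.5mM EDTA, 0.1 mg/ml BSA, 1mM TCEP, 0.01% Tween-20.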
% is scaled to controls: 0 for no effect and ±100 for the full control effect; potency is read from the fitted curve at half-maximal effect.
Also: nearly all actives have a fitted effect of over 60% in size.

Potency, active:
CC(C)=CCC1=C(OCC(=O)O)C(=O)c2ccccc2C1=O 10 µM
Cc1ccc(NC2=C(NCCO)C(=O)c3ccccc3C2=O)cc1 14.1 µM

Potency, inconclusive:
Cc1cc(C)c2c(c1)NC(C(=O)O)C1CC=CC21 (stereo not given) 31.6 µM [inhibitor, partial curve]
O=C(Oc1nsnc1N1CCOCC1)c1ccccc1 22.4 µM [inhibitor, partial curve]
COc1cc(NC(=O)CN2CCN(c3ccc(F)cc3)CC2)cc(OC)c1 35.5 µM [inhibitor, single point]
CC1=C(C(=O)OCC2CCCO2)C(c2cccc(C(F)(F)F)c2)C2=C(CC(c3ccco3)CC2=O)N1 (stereo not given) 44.7 µM [inhibitor, partial curve, poor fit]
CC(=O)c1ccc(N2CCN(S(=O)(=O)c3ccc(-c4coc(C)n4)cc3)CC2)cc1 0.708 µM [inhibitor, full curve, poor fit]
N[C@@H](Cc1cc(I)c(Oc2ccc(O)c(I)c2)c(I)c1)C(=O)O 44.7 µM [inhibitor, partial curve]
FC(F)(F)c1ccc(CN2C[C@@H]3C(c4ccccc4)C4(c5cccnc5)CC3(C4)[C@H]2c2ccccc2)cc1 (stereo not given in full) 2.82 µM [inhibitor, full curve, poor fit]
CCOc1cc(-c2ccc(OC(=O)c3ccccc3Cl)c(OC)c2)cc(=O)c2c(C)oc(C)c12 0.708 µM [inhibitor, full curve]
CCc1ccc(CSc2nc(-c3ccccc3F)nc3c2Cc2c(CO)cnc(C)c2O3)cc1 39.8 µM [inhibitor, partial curve, poor fit]
CCN(Cc1ccccc1)C(=O)Cn1c(=O)n(-c2ccccc2)c(=O)c2c1c1cc(C)ccc1n2C 5.62 µM [inhibitor, full curve]
O=C(N/N=C/c1cccc(F)c1)c1cc(-c2ccco2)nc2ccccc12 63.1 µM [inhibitor, partial curve, poor fit]
CCOc1ccccc1CN1C(=O)C2(OCCO2)c2ccccc21 28.2 µM [inhibitor, partial curve]
Fc1ccc(C2=CSC3=NCCN23)cc1 11.2 µM [inhibitor, partial curve]
CC(=O)c1c(C)[nH]c(C(=O)/C(C#N)=C/c2cccc(C)c2)c1C 44.7 µM [inhibitor, partial curve, poor fit]
COc1ccc2ccccc2c1CNC(=O)CC1C(=O)NCCN1CC(C)(C)C (stereo not given) 50.1 µM [inhibitor, partial curve, poor fit]
Cc1cccc(CN2C(=O)c3ccccc3Sc3ccc(C(=O)NC4CCCCC4)cc32)c1 0.251 µM [inhibitor, full curve, poor fit]
C=CCN(c1ccccc1)S(=O)(=O)c1cccc(C(=O)Nc2ncccc2C)c1 10 µM [inhibitor, partial curve]
CC(=O)NN1C(=O)c2ccc(Oc3ccc([N+](=O)[O-])cc3)cc2C1=O 0.631 µM [inhibitor, full curve, poor fit]
c1csc(-c2cc(N3CCCCC3)c3ccccc3n2)c1 35.5 µM [inhibitor, partial curve]
Cc1ccc(S(=O)(=O)N(CC(=O)Nc2ccc(Cl)cc2Cl)c2ccccc2C)cc1 0.178 µM [inhibitor, full curve]
CC(C)Cc1nnc(NC(=O)C2CCCN(C(=O)c3ccc(Cl)cc3)C2)s1 (stereo not given) 7.94 µM [inhibitor, partial curve]
COC(=O)[C@@]12CCCCN1[C@H](c1ccc(-c3cc(C(C)=O)cs3)cc1)[C@H]1C(=O)N(C)C(=O)[C@H]12 0.316 µM [inhibitor, full curve, poor fit]
CCN(CC)C(=O)CC(c1ccc2c(c1)OCO2)c1c(OC)cc(OC)c2c(-c3ccccc3)cc(=O)oc12 (stereo not given) 0.178 µM [inhibitor, full curve]
Cc1cccc2sc(NC(=O)c3ccc(Cl)s3)nc12 1.12 µM [inhibitor, full curve, poor fit]
CC(C)NC(=S)N1CCN(Cc2ccc3c(c2)OCO3)CC1 8.91 µM [inhibitor, partial curve, poor fit]
Cc1ccc(CNC(=O)CS(=O)(=O)c2cccc3nsnc23)cc1 5.62 µM [inhibitor, partial curve]
CCC(C(=O)Nc1ccc(C)c(C)c1)n1c(=O)c(C(F)(F)F)nc2ccccc21 (stereo not given) 44.7 µM [inhibitor, partial curve]
CN(N=Cc1ccccc1)C(=S)Nc1ccccc1 39.8 µM [inhibitor, partial curve]
COc1cc(NC(=O)N2CCNC2=O)cc(C(=O)Nc2cccc(C(F)(F)F)c2)c1 0.251 µM [inhibitor, full curve, poor fit]
O=C(COC(=O)CCc1ccccc1)NNC(=O)c1ccccc1 44.7 µM [inhibitor, partial curve, poor fit]
COc1ccccc1C(C(C(=O)c1ccccc1)N1CCOCC1)N1CCOCC1 (stereo not given) 7.94 µM [inhibitor, partial curve, poor fit]
O=C(Nc1cccc(C(F)(F)F)c1)C(Sc1n[nH]c(=O)[nH]c1=O)c1ccccc1 (stereo not given) 0.251 µM [inhibitor, full curve, poor fit]
CCCCCCCCCCCCCCCC[n+]1cccc(C(=O)N(CC)CC)c1 31.6 µM [inhibitor, single point] and 31.6 µM [inhibitor, partial curve, poor fit]
Cc1ccc(CN(C)C(=O)c2cccc(S(=O)(=O)N3CCCC3)c2)o1 28.2 µM [inhibitor, partial curve]
Cc1ccc(C(=O)N2C(=S)C(c3ccc(F)cc3)=NC23CCN(C)CC3)cc1 31.6 µM [inhibitor, partial curve]
COc1ccc(-c2csc(N(CC3CCCO3)C(=O)c3ccco3)n2)cc1 (stereo not given) 25.1 µM [inhibitor, partial curve]
CCn1c(SCC(=O)Nc2cc(C)on2)nnc1-c1ccc(C)cc1 35.5 µM [inhibitor, single point]
COc1ccc(-c2nc(/C=C3\C(C)=Nc4ccccc43)c(O)o2)cc1 35.5 µM [inhibitor, single point]
O=C(O)c1ccc(NC(=O)c2ccc(Cl)c(S(=O)(=O)N3CCCCCC3)c2)cc1 14.1 µM [inhibitor, partial curve]
COc1ccccc1-c1cc2nc(C)c(CCC(=O)NCc3ccco3)c(C)n2n1 28.2 µM [inhibitor, partial curve]
O=C(c1cc(-c2ccncc2)nc2ccccc12)N1CCN(c2ncccn2)CC1 10 µM [inhibitor, full curve, poor fit]
CN(Cc1ccccc1)S(=O)(=O)c1ccc2[nH]c(=O)oc2c1 20 µM [inhibitor, partial curve]

11 structures from above, ordered by molecular weight, smallest number first.
Potency, inconclusive:
O=C(Oc1nsnc1N1CCOCC1)c1ccccc1 22.4 µM [inhibitor, partial curve]
Cc1cccc2sc(NC(=O)c3ccc(Cl)s3)nc12 1.12 µM [inhibitor, full curve, poor fit]
COc1cc(NC(=O)CN2CCN(c3ccc(F)cc3)CC2)cc(OC)c1 35.5 µM [inhibitor, single point]
COc1ccc2ccccc2c1CNC(=O)CC1C(=O)NCCN1CC(C)(C)C (stereo not given) 50.1 µM [inhibitor, partial curve, poor fit]
CCCCCCCCCCCCCCCC[n+]1cccc(C(=O)N(CC)CC)c1 31.6 µM [inhibitor, single point] and 31.6 µM [inhibitor, partial curve, poor fit]
CC(C)Cc1nnc(NC(=O)C2CCCN(C(=O)c3ccc(Cl)cc3)C2)s1 (stereo not given) 7.94 µM [inhibitor, partial curve]
COc1ccccc1C(C(C(=O)c1ccccc1)N1CCOCC1)N1CCOCC1 (stereo not given) 7.94 µM [inhibitor, partial curve, poor fit]
O=C(Nc1cccc(C(F)(F)F)c1)C(Sc1n[nH]c(=O)[nH]c1=O)c1ccccc1 (stereo not given) 0.251 µM [inhibitor, full curve, poor fit]
Cc1ccc(S(=O)(=O)N(CC(=O)Nc2ccc(Cl)cc2Cl)c2ccccc2C)cc1 0.178 µM [inhibitor, full curve]
CC1=C(C(=O)OCC2CCCO2)C(c2cccc(C(F)(F)F)c2)C2=C(CC(c3ccco3)CC2=O)N1 (stereo not given) 44.7 µM [inhibitor, partial curve, poor fit]
CCN(CC)C(=O)CC(c1ccc2c(c1)OCO2)c1c(OC)cc(OC)c2c(-c3ccccc3)cc(=O)oc12 (stereo not given) 0.178 µM [inhibitor, full curve]

Next part:

Activity change, negative = inhibition, inactive:
O=Cc1ccc2noc(-c3ccc(F)cc3)c2c1 -21.1%
CCCNC(=O)COC(=O)c1c2c(nc3ccccc13)CCC2 -9.63%
Cn1nc(-c2ccc(C(=O)Nc3cccc(Cl)c3)cc2)c2ccccc2c1=O -0.294%
COc1cc2[nH]c3c(=O)n(CCN(C(C)C)C(C)C)cnc3c2cc1OC -5.01%
Cn1c(SCC(=O)NCCNC(=O)CSc2nnc(C(F)(F)F)n2C)nnc1C(F)(F)F -14.2%
O=C1CN(C(=O)COc2ccc(F)cc2Br)c2ccccc2N1 -20.6%
COc1ccccc1Nc1nc(N)nc(CN2CCCCC2)n1 -2.33%
COc1ccc(Cl)cc1S(=O)(=O)NCc1ccc2c(c1)CCN2C(=O)c1cccc(C)c1 -19.1%
Cc1nc2scc(C)n2c(=O)c1S(=O)(=O)NCC1CCN(Cc2ccc(F)cc2)CC1 -14.7%
Cc1cccc(NS(=O)(=O)c2ccc3c(c2)CC(C)N3C(=O)C2CCC2)c1C (stereo not given) -8.52%
COc1ccc(N2CCN(S(=O)(=O)c3c(C)n(C)c(=O)n(C)c3=O)CC2)cc1 -20.6%
COc1ccccc1N1CCN(c2ccc3c(c2)S(=O)(=O)c2cccc(C(=O)NCC4CC4)c2C3=O)CC1 -16.2%
Cc1cc(C)cc(NC(=O)Nc2cc(S(=O)(=O)N(C)C)ccc2C)c1 -10.1%
COc1ccc(NS(=O)(=O)c2ccc(N3CCCC3)c(NC(=S)Nc3ccc(SC(F)F)cc3)c2)cc1 -19.6%
Fc1ccc(-c2c[nH]c(=S)n2Cc2ccccc2)cc1 -13.8%
CN(C1CCCCC1)S(=O)(=O)c1ccc2c(c1)c(=O)c(C(=O)N1CCN(c3ccccc3)CC1)cn2C -12.3%
O=C(Nc1ccc(Cl)cc1Cl)c1cc(S(=O)(=O)NCc2ccc3c(c2)OCO3)ccc1F -19%
Cc1ccc([N+](=O)[O-])cc1Nc1nc(N2CCCC2)nc(N2CCCC2)n1 -22.3%
C[C@@H](CN1CCC(Cc2ccccc2)CC1)[C@@H](O)c1ccc(O)cc1 -17.2%
Cc1nc(N2CCOCC2)c2c3c(sc2n1)CCC3 -6.81%
C/C(=N\Nc1nc2ccccc2[nH]1)c1ccc2c(c1)OCCO2 -18.1%
